Binding data for 3 substances are collected here from PMC11791114.

Chains of the proteins cited; added tags and fusions are not shown.
UniProt Q3TKT4: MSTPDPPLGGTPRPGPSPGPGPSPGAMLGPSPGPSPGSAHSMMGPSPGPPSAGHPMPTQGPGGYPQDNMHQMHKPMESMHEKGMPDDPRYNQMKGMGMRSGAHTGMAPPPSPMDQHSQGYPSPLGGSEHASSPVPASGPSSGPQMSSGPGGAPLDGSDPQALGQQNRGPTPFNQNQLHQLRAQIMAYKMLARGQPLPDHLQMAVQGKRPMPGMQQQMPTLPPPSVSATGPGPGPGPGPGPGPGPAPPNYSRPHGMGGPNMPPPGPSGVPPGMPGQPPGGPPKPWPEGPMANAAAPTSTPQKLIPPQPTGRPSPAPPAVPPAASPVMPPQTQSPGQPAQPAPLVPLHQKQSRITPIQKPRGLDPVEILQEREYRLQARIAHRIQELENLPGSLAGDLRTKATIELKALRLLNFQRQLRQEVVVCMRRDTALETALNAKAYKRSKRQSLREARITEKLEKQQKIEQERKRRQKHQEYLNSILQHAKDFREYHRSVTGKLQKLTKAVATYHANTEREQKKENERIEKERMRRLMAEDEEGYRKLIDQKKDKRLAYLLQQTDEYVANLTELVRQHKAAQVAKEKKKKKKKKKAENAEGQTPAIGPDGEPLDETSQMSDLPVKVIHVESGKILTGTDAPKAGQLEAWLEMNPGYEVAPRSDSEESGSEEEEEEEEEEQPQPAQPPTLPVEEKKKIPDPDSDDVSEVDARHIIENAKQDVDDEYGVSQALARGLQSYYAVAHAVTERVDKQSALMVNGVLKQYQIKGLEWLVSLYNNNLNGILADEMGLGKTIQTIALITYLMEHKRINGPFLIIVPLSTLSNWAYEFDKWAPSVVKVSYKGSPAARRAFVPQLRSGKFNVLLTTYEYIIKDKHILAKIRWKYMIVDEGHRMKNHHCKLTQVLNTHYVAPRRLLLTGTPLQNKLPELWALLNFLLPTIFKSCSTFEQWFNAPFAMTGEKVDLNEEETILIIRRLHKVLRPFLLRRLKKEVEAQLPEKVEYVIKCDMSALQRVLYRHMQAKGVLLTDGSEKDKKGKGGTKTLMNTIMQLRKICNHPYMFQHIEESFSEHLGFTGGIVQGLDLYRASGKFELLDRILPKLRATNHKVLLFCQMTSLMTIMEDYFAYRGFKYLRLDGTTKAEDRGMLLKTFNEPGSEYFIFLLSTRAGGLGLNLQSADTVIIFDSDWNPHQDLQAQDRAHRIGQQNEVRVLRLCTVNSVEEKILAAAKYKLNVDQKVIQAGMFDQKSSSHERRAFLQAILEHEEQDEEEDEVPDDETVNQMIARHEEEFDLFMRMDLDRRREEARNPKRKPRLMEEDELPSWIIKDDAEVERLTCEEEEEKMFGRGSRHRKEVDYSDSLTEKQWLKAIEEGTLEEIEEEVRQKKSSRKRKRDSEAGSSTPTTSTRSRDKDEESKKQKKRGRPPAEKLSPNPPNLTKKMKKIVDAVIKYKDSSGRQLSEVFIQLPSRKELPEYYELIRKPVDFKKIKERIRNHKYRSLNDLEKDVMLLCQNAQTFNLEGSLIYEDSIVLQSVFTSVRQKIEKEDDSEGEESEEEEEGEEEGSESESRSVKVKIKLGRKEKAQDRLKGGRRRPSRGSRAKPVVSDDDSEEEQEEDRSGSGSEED
UniProt Q61103: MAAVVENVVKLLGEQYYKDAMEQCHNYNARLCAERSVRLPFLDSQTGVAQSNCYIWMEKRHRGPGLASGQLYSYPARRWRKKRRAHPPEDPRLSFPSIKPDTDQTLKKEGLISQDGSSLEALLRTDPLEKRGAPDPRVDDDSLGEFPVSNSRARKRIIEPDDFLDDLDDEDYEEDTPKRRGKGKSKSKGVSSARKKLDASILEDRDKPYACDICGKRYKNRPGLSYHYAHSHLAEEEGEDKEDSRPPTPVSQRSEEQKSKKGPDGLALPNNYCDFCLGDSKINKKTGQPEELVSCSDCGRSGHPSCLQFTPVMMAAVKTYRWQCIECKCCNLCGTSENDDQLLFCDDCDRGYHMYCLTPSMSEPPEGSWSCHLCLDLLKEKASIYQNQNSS
UniProt Q02248: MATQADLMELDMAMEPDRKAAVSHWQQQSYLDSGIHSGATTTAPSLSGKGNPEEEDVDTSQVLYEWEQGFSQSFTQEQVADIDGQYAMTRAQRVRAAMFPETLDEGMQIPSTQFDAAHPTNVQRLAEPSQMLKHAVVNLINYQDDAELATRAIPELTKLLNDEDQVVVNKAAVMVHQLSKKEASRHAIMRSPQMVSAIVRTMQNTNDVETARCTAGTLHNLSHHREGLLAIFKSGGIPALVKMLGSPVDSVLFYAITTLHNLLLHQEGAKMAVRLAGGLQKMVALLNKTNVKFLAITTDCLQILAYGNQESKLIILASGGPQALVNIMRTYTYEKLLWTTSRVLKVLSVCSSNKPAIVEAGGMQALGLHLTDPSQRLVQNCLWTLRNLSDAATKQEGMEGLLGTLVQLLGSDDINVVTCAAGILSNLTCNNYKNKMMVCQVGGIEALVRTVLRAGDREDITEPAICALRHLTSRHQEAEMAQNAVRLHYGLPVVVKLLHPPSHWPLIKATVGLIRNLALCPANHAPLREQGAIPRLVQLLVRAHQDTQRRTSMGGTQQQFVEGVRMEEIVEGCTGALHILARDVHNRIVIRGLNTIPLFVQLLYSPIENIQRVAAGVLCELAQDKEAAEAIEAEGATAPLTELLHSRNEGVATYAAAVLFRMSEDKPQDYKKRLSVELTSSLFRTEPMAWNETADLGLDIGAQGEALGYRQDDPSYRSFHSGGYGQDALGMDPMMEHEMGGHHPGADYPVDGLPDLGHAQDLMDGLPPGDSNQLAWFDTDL
UniProt P42227: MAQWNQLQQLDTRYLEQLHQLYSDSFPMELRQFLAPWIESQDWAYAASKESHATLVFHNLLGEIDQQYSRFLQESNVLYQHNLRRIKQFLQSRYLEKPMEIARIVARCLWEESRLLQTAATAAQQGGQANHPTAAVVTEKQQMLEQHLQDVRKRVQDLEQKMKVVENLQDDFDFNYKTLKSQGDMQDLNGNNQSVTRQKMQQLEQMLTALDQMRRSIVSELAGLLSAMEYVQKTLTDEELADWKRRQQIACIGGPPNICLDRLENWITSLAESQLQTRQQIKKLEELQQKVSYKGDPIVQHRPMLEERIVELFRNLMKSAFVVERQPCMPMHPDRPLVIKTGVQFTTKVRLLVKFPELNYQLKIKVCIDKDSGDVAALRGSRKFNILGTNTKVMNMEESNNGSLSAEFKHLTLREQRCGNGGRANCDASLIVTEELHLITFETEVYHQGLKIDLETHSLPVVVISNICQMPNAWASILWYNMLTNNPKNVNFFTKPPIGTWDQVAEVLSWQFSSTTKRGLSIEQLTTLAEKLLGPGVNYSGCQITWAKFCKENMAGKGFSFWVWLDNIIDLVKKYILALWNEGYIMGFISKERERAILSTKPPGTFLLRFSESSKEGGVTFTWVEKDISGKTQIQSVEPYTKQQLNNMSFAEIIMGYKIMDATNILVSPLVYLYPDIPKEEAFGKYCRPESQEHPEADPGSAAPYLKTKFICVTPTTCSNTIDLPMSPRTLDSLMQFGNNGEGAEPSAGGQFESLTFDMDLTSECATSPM
UniProt Q62432: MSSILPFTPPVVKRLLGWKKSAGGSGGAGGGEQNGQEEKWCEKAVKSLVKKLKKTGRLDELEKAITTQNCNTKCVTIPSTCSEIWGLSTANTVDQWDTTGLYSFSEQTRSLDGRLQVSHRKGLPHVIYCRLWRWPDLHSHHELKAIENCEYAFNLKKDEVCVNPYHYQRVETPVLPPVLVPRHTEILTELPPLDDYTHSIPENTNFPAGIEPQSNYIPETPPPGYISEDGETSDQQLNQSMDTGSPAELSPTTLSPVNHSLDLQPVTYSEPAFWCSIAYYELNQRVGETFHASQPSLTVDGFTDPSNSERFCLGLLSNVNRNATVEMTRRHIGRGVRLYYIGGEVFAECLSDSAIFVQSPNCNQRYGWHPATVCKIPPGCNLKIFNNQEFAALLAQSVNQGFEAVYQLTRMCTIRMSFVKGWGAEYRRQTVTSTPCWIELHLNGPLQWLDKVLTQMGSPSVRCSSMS

For assay [1], the target named is BRG1 (mouse (endogenous in E14 ESCs)) (UniProt Q3TKT4). Kind of assay: co-IP; ESC lysate (1% IGEPAL CA-630, 50 mM Tris-HCl pH 8.0, 150 mM NaCl, protease inhibitor), precleared, target-specific antibody or isotype control 2 h at 4 °C, Protein A/G beads overnight at 4 °C, Western blot. A general note: A western blot detects proteins with antibodies after separation by electrophoresis.

In the next assay the target is FLAG-DPF2 (mouse) (UniProt Q61103). Described as above.

These are yes or no findings as the source states them, for the method shown. In cells and extracts the contact can be indirect. Some entries that bind do so weakly or less than the wild type.

Take β-CATENIN (from UniProt Q02248 1-781): the binding entry in assay [1] is on record as “binds”.

Consider STAT3 (from UniProt P42227 1-770), for which the binding result in the assay with FLAG-DPF2 (mouse) is reported as “binds”.

In the case of SMAD2 (from UniProt Q62432 1-467), the binding result in assay [1] is “binds”.
